Experimental data reported in PMC6821171.

B1: AF4/FMR2 family member 4 (protein, UniProt Q9UHB7 1-1163)
chain: MNREDRNVLRMKERERRNQEIQQGEDAFPPSSPLFAEPYKVTSKEDKLSSRIQSMLGNYDEMKDFIGDRSIPKLVAIPKPTVPPSADEKSNPNFFEQRHGGSHQSSKWTPVGPAPSTSQSQKRSSGLQSGHSSQRTSAGSSSGTNSSGQRHDRESYNNSGSSSRKKGQHGSEHSKSRSSSPGKPQAVSSLNSSHSRSHGNDHHSKEHQRSKSPRDPDANWDSPSRVPFSSGQHSTQSFPPSLMSKSNSMLQKPTAYVRPMDGQESMEPKLSSEHYSSQSHGNSMTELKPSSKAHLTKLKIPSQPLDASASGDVSCVDEILKEMTHSWPPPLTAIHTPCKTEPSKFPFPTKESQQSNFGTGEQKRYNPSKTSNGHQSKSMLKDDLKLSSSEDSDGEQDCDKTMPRSTPGSNSEPSHHNSEGADNSRDDSSSHSGSESSSGSDSESESSSSDSEANEPSQSASPEPEPPPTNKWQLDNWLNKVNPHKVSPASSVDSNIPSSQGYKKEGREQGTGNSYTDTSGPKETSSATPGRDSKTIQKGSESGRGRQKSPAQSDSTTQRRTVGKKQPKKAEKAAAEEPRGGLKIESETPVDLASSMPSSRHKAATKGSRKPNIKKESKSSPRPTAEKKKYKSTSKSSQKSREIIETDTSSSDSDESESLPPSSQTPKYPESNRTPVKPSSVEEEDSFFRQRMFSPMEEKELLSPLSEPDDRYPLIVKIDLNLLTRIPGKPYKETEPPKGEKKNVPEKHTREAQKQASEKVSNKGKRKHKNEDDNRASESKKPKTEDKNSAGHKPSSNRESSKQSAAKEKDLLPSPAGPVPSKDPKTEHGSRKRTISQSSSLKSSSNSNKETSGSSKNSSSTSKQKKTEGKTSSSSKEVKEKAPSSSSNCPPSAPTLDSSKPRRTKLVFDDRNYSADHYLQEAKKLKHNADALSDRFEKAVYYLDAVVSFIECGNALEKNAQESKSPFPMYSETVDLIKYTMKLKNYLAPDATAADKRLTVLCLRCESLLYLRLFKLKKENALKYSKTLTEHLKNSYNNSQAPSPGLGSKAVGMPSPVSPKLSPGNSGNYSSGASSASASGSSVTIPQKIHQMAASYVQVTSNFLYATEIWDQAEQLSKEQKEFFAELDKVMGPLIFNASIMTDLVRYTRQGLHWLRQDAKLIS
B2: Protein ENL (protein, UniProt Q03111 1-559)
chain: MDNQCTVQVRLELGHRAQLRKKPTTEGFTHDWMVFVRGPEQCDIQHFVEKVVFWLHDSFPKPRRVCKEPPYKVEESGYAGFIMPIEVHFKNKEEPRKVCFTYDLFLNLEGNPPVNHLRCEKLTFNNPTTEFRYKLLRAGGVMVMPEGADTVSRPSPDYPMLPTIPLSAFSDPKKTKPSHGSKDANKESSKTSKPHKVTKEHRERPRKDSESKSSSKELEREQAKSSKDTSRKLGEGRLPKEEKAPPPKAAFKEPKMALKETKLESTSPKGGPPPPPPPPPRASSKRPATADSPKPSAKKQKKSSSKGSRSAPGTSPRTSSSSSFSDKKPAKDKSSTRGEKVKAESEPREAKKALEVEESNSEDEASFKSESAQSSPSNSSSSSDSSSDSDFEPSQNHSQGPLRSMVEDLQSEESDEDDSSSGEEAAGKTNPGRDSRLSFSDSESDNSADSSLPSREPPPPQKPPPPNSKVSGRRSPESCSKPEKILKKGTYDKAYTDELVELHRRLMALRERNVLQQIVNLIEETGHFNVTNTTFDFDLFSLDETTVRKLQSCLEAVAT
B3: UPF0568 protein C14orf166 (protein, UniProt Q9Y224 1-244)
chain: MFRRKLTALDYHNPAGFNCKDETEFRNFIVWLEDQKIRHYKIEDRGNLRNIHSSDWPKFFEKYLRDVNCPFKIQDRQEAIDWLLGLAVRLEYGDNAEKYKDLVPDNSKTADNATKNAEPLINLDVNNPDFKAGVMALANLLQIQRHDDYLVMLKAIRILVQERLTQDAVAKANQTKEGLPVALDKHILGFDTGDAVLNEAAQILRLLHIEELRELQTKINEAIVAVQAIIADPKTDHRLGKVGR
B4: Matrin-3 (protein, UniProt P43243 1-847)
chain: MSKSFQQSSLSRDSQGHGRDLSAAGIGLLAAATQSLSMPASLGRMNQGTARLASLMNLGMSSSLNQQGAHSALSSASTSSHNLQSIFNIGSRGPLPLSSQHRGDADQASNILASFGLSARDLDELSRYPEDKITPENLPQILLQLKRRRTEEGPTLSYGRDGRSATREPPYRVPRDDWEEKRHFRRDSFDDRGPSLNPVLDYDHGSRSQESGYYDRMDYEDDRLRDGERCRDDSFFGETSHNYHKFDSEYERMGRGPGPLQERSLFEKKRGAPPSSNIEDFHGLLPKGYPHLCSICDLPVHSNKEWSQHINGASHSRRCQLLLEIYPEWNPDNDTGHTMGDPFMLQQSTNPAPGILGPPPPSFHLGGPAVGPRGNLGAGNGNLQGPRHMQKGRVETSRVVHIMDFQRGKNLRYQLLQLVEPFGVISNHLILNKINEAFIEMATTEDAQAAVDYYTTTPALVFGKPVRVHLSQKYKRIKKPEGKPDQKFDQKQELGRVIHLSNLPHSGYSDSAVLKLAEPYGKIKNYILMRMKSQAFIEMETREDAMAMVDHCLKKALWFQGRCVKVDLSEKYKKLVLRIPNRGIDLLKKDKSRKRSYSPDGKESPSDKKSKTDGSQKTESSTEGKEQEEKSGEDGEKDTKDDQTEQEPNMLLESEDELLVDEEEAAALLESGSSVGDETDLANLGDVASDGKKEPSDKAVKKDGSASAAAKKKLKKVDKIEELDQENEAALENGIKNEENTEPGAESSENADDPNKDTSENADGQSDENKDDYTIPDEYRIGPYQPNVPVGIDYVIPKTGFYCKLCSLFYTNEEVAKNTHCSSLPHYQKLKKFLNKLAEERRQKKET
B5: Treacle protein (protein, UniProt Q13428 1-1488)
chain: MAEARKRRELLPLIYHHLLRAGYVRAAREVKEQSGQKCFLAQPVTLLDIYTHWQQTSELGRKRKAEEDAALQAKKTRVSDPISTSESSEEEEEAEAETAKATPRLASTNSSVLGADLPSSMKEKAKAETEKAGKTGNSMPHPATGKTVANLLSGKSPRKSAEPSANTTLVSETEEEGSVPAFGAAAKPGMVSAGQADSSSEDTSSSSDETDVEGKPSVKPAQVKASSVSTKESPARKAAPAPGKVGDVTPQVKGGALPPAKRAKKPEEESESSEEGSESEEEAPAGTRSQVKASEKILQVRAASAPAKGTPGKGATPAPPGKAGAVASQTKAGKPEEDSESSSEESSDSEEETPAAKALLQAKASGKTSQVGAASAPAKESPRKGAAPAPPGKTGPAVAKAQAGKREEDSQSSSEESDSEEEAPAQAKPSGKAPQVRAASAPAKESPRKGAAPAPPRKTGPAAAQVQVGKQEEDSRSSSEESDSDREALAAMNAAQVKPLGKSPQVKPASTMGMGPLGKGAGPVPPGKVGPATPSAQVGKWEEDSESSSEESSDSSDGEVPTAVAPAQEKSLGNILQAKPTSSPAKGPPQKAGPVAVQVKAEKPMDNSESSEESSDSADSEEAPAAMTAAQAKPALKIPQTKACPKKTNTTASAKVAPVRVGTQAPRKAGTATSPAGSSPAVAGGTQRPAEDSSSSEESDSEEEKTGLAVTVGQAKSVGKGLQVKAASVPVKGSLGQGTAPVLPGKTGPTVTQVKAEKQEDSESSEEESDSEEAAASPAQVKTSVKKTQAKANPAAARAPSAKGTISAPGKVVTAAAQAKQRSPSKVKPPVRNPQNSTVLARGPASVPSVGKAVATAAQAQTGPEEDSGSSEEESDSEEEAETLAQVKPSGKTHQIRAALAPAKESPRKGAAPTPPGKTGPSAAQAGKQDDSGSSSEESDSDGEAPAAVTSAQVIKPPLIFVDPNRSPAGPAATPAQAQAASTPRKARASESTARSSSSESEDEDVIPATQCLTPGIRTNVVTMPTAHPRIAPKASMAGASSSKESSRISDGKKQEGPATQVSKKNPASLPLTQAALKVLAQKASEAQPPVARTQPSSGVDSAVGTLPATSPQSTSVQAKGTNKLRKPKLPEVQQATKAPESSDDSEDSSDSSSGSEEDGEGPQGAKSAHTLGPTPSRTETLVEETAAESSEDDVVAPSQSLLSGYMTPGLTPANSQASKATPKLDSSPSVSSTLAAKDDPDGKQEAKPQQAAGMLSPKTGGKEAASGTTPQKSRKPKKGAGNPQASTLALQSNITQCLLGQPWPLNEAQVQASVVKVLTELLEQERKKVVDTTKESSRKGWESRKRKLSGDQPAARTPRSKKKKKLGAGEGGEASVSPEKTSTTSKGKAKRDKASGDVKEKKGKGSLGSQGAKDEPEEELQKGMGTVEGGDQSNPKSKKEKKKSDKRKKDKEKKEKKKKAKKASTKDSESPSQKKKKKKKKTAEQTV
B6: DNA-binding protein SATB2 (protein, UniProt Q9UPW6 1-733)
chain: MERRSESPCLRDSPDRRSGSPDVKGPPPVKVARLEQNGSPMGARGRPNGAVAKAVGGLMIPVFCVVEQLDGSLEYDNREEHAEFVLVRKDVLFSQLVETALLALGYSHSSAAQAQGIIKLGRWNPLPLSYVTDAPDATVADMLQDVYHVVTLKIQLQSCSKLEDLPAEQWNHATVRNALKELLKEMNQSTLAKECPLSQSMISSIVNSTYYANVSATKCQEFGRWYKKYKKIKVERVERENLSDYCVLGQRPMHLPNMNQLASLGKTNEQSPHSQIHHSTPIRNQVPALQPIMSPGLLSPQLSPQLVRQQIAMAHLINQQIAVSRLLAHQHPQAINQQFLNHPPIPRAVKPEPTNSSVEVSPDIYQQVRDELKRASVSQAVFARVAFNRTQGLLSEILRKEEDPRTASQSLLVNLRAMQNFLNLPEVERDRIYQDERERSMNPNVSMVSSASSSPSSSRTPQAKTSTPTTDLPIKVDGANINITAAIYDEIQQEMKRAKVSQALFAKVAANKSQGWLCELLRWKENPSPENRTLWENLCTIRRFLNLPQHERDVIYEEESRHHHSERMQHVVQLPPEPVQVLHRQQSQPAKESSPPREEAPPPPPPTEDSCAKKPRSRTKISLEALGILQSFIHDVGLYPDQEAIHTLSAQLDLPKHTIIKFFQNQRYHVKHHGKLKEHLGSAVDVAEYKDEELLTESEENDSEEGSEEMYKVEAEEENADKSKAAPAEIDQR
B7: Interleukin enhancer-binding factor 3 (protein, UniProt Q12906 1-894)
chain: MRPMRIFVNDDRHVMAKHSSVYPTQEELEAVQNMVSHTERALKAVSDWIDEQEKGSSEQAESDNMDVPPEDDSKEGAGEQKTEHMTRTLRGVMRVGLVAKGLLLKGDLDLELVLLCKEKPTTALLDKVADNLAIQLAAVTEDKYEILQSVDDAAIVIKNTKEPPLSLTIHLTSPVVREEMEKVLAGETLSVNDPPDVLDRQKCLAALASLRHAKWFQARANGLKSCVIVIRVLRDLCTRVPTWGPLRGWPLELLCEKSIGTANRPMGAGEALRRVLECLASGIVMPDGSGIYDPCEKEATDAIGHLDRQQREDITQSAQHALRLAAFGQLHKVLGMDPLPSKMPKKPKNENPVDYTVQIPPSTTYAITPMKRPMEEDGEEKSPSKKKKKIQKKEEKAEPPQAMNALMRLNQLKPGLQYKLVSQTGPVHAPIFTMSVEVDGNSFEASGPSKKTAKLHVAVKVLQDMGLPTGAEGRDSSKGEDSAEETEAKPAVVAPAPVVEAVSTPSAAFPSDATAEQGPILTKHGKNPVMELNEKRRGLKYELISETGGSHDKRFVMEVEVDGQKFQGAGSNKKVAKAYAALAALEKLFPDTPLALDANKKKRAPVPVRGGPKFAAKPHNPGFGMGGPMHNEVPPPPNLRGRGRGGSIRGRGRGRGFGGANHGGYMNAGAGYGSYGYGGNSATAGYSQFYSNGGHSGNASGGGGGGGGGSSGYGSYYQGDNYNSPVPPKHAGKKQPHGGQQKPSYGSGYQSHQGQQQSYNQSPYSNYGPPQGKQKGYNHGQGSYSYSNSYNSPGGGGGSDYNYESKFNYSGSGGRSGGNSYGSGGASYNPGSHGGYGGGSGGGSSYQGKQGGYSQSNYNSPGSGQNYSGPPSSYQSSQGGYGRNADHSMNYQYR

Each binder was assayed against HBF (His6-biotinylation sequence-FLAG tag)-LYAR (human) (UniProt Q9NX58) (assay: affinity purification with mass spectrometry; HBF-LYAR as bait; sequential two-step pulldown (Ni-NTA pulldown, RNase A treatment, FLAG pulldown) from nuclear extract of HBF-LYAR-TO cells treated with Dox for 24 h; SDS-PAGE, in-gel digestion with trypsin and Lys-C, nano LC-MS/MS; T-REx 293 cells as control).

binding, binds:
B1
B2
B3
B4
B5
B6
B7

Results are given in words; binding and its absence hold for the method and conditions named. In cells and extracts the contact can be indirect. Here binding means that the protein was enriched with, or labelled near, the bait; the list need not be complete.
